Test results from US8410289B2, “Spirocyclic 3'-alkoxytetramic acids and-tetronic acids” (Bayer Cropscience AG, priority 2004, dated 2013).
Some entries share one result that the patent states for a list of compounds. At least one compound was matched to its structure with a doubt left.

Legend:
Assay type in all cases: in vivo
Phaedon cochleariae = assay: Phaedon test (spray treatment); conditions: active compound concentration 500 g/ha, larvae on Chinese cabbage discs
Spodoptera frugiperda = Spodoptera frugiperda test (spray treatment); conditions: active compound concentration 500 g/ha, caterpillars on maize leaf discs
Myzus persicae = assay: Myzus test (spray treatment); conditions: active compound concentration 500 g/ha, Chinese cabbage discs

COC1CCCC2(C1)OC(=O)C(c1cc(-c3ccc(Cl)cc3)ccc1Cl)=C2O (stereo not drawn) [Example I-2-a-31]
kill rate against Phaedon cochleariae (Phaedon cochleariae): ≥ 90%
kill rate against Spodoptera frugiperda (Spodoptera frugiperda): ≥ 80%
kill rate against Myzus persicae (Myzus persicae): ≥ 90%
